Among all 230,000 compounds or so, about 310 (0.13%) were called active. Inconclusive results (about 2%) are left out. The call rests on the fitted dose curve; in most records, active means well fitted activation curve with a large enough effect; inconclusive means small, poorly fitted or top-dose-only effect; inactive means no such curve, though single readings can be large or run the other way. This is a selection; strong and weak results do not stand in their true shares. Entries without a call were filed so in the source.
experiment: qHTS Multiplex Assay to Identify Dual Action Probes in a Cell Model of Huntington: Cytoprotection (ATP); settings: PC12 HTT-Q103 induced, ATP luminescence, 40 h; cytoprotection (ATP increase): at 56.4 µM (top of the series) unless noted; further: nearly all actives have a fitted effect of over 45% in size;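 on cytoprotection (ATP increase): toxic huntingtin expression switched on by the ecdysone agonist tebufenozide; % of control where 0% means no effect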
Procedure, shortened: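 Compounds were screened for protection of PC12 cells against cell death after tebufenozide induction (100 nM final) of mutant Huntingtin exon 1 (Q103) fused to GFP.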
Potency means the concentration at half of the fitted maximal effect.

Row | SMILES | Potency | cytoprotection (ATP increase)
1 | Cc1ccc2nc(NC(=O)C3CCN(S(=O)(=O)c4cccs4)CC3)sc2c1 | active: 3.55 µM | 
2 | COc1ccc2c(c1)O[C@@H](c1cccc(C(F)(F)F)c1)[C@H](OC(=O)NCCOc1ccccc1)C2=O |  | -27.2%
3 | CN1CCN(S(=O)C23CC4CC(CC(C4)C2)C3)CC1 (configuration not stated) |  | 315% [at 10 µM]
4 | CN(C)CC/C=C1/c2ccccc2COc2ccccc21 |  | -146%
5 | CN1C(=O)C2(c3ccccc31)C1CCCC=C1C(C#N)=C(N)C2(C#N)C#N (configuration not stated) | active: 20 µM | 
6 | N#CCCCS(=O)(=O)c1nnnn1C1CCCCC1 |  | 50.8%
7 | COc1c(C2=CC(=O)N(C)C2=O)c2c(n1C)C(=O)c1ccccc1C2=O | active: 14.1 µM | 
8 | Cc1ccc(OCC(=O)N2CC(C)OC(C)C2)c([N+](=O)[O-])n1 (configuration not stated) | active: 0.0501 µM | 
9 | COC(=O)c1c(-c2ccccc2)c[nH]c1C |  | 361% [at 10 µM]
10 | O=C(OCC(F)(F)F)[C@H](O)[C@@H](O)C(=O)OCC(F)(F)F |  | 53%
11 | CC(C)(C)c1cc(/C=C(\C#N)C(N)=S)cc(C(C)(C)C)c1O |  | -180%
12 | COc1ccccc1-c1nnc(Sc2nc([N+](=O)[O-])nn2C)o1 | active: 17.8 µM | 
13 | CC(=O)c1ccc(-c2cccc([C@H]3[C@@H]4C=CC[C@@H](C)[C@@H]4C(=O)N3Cc3ccccc3)c2)cc1 |  | -271%
14 | CC(C)=CCc1c(O)cc2occ(-c3ccc4c(c3)OCO4)c(=O)c2c1O |  | -119%
15 | O=C1OCCN1C(=O)[C@H]1[C@H](c2ccccc2)C(c2ccc(F)cc2)=NN1c1ccc(Br)cc1 |  | -119% [at 40.3 µM]
16 | Cc1cc(O)cc(=O)o1 |  | 31.4%
17 | COc1ccc(OC)c(-c2ccc(C(=O)O)o2)c1 |  | -44.8% [at 96.6 µM]
18 | CC1(OC(=O)c2ccco2)C(=O)C=C2C=C(c3ccc(C#N)cc3)OC=C2C1=O (configuration not stated) |  | 41.1%
19 | Nc1ccccc1C(=O)/C=C/c1ccccc1 |  | 46.6%

Row | SMILES | Potency | cytoprotection (ATP increase)
20 | Cc1ccc(C(C(=O)NCC2CCCO2)N(Cc2ccccc2)C(=O)c2ccc(-c3ccccc3)[nH]2)o1 (configuration not stated) |  | 302% [at 1.9 µM]
21 | COc1ccc(-c2cccc(-c3cc(=O)oc4cc(OC)c(OC)c(OC)c34)c2)cc1 |  | -153%
22 | CCOC(=O)C1C/C(=C\C(C)=O)c2cccc(C(F)(F)F)c2O1 (configuration not stated) |  | -57.1%
23 | COc1cc(NS(=O)(=O)c2ccc(NC(=O)/C=C/c3ccc([N+](=O)[O-])cc3)cc2)ncn1 |  | -56.9%
24 | CCOc1ccc(-c2nc3ccc(-c4nc5ccc(N6CCN(C)CC6)cc5[nH]4)cc3[nH]2)cc1 |  | -102%
25 | Cc1ccc(-c2c(C)cc3oc(=O)cc(-c4ccccc4)c3c2C)cc1 |  | -49%
26 | CCCNC(=O)c1cc(-c2ccco2)on1 | active: 1.58 µM | 
27 | CC(C)NC(=O)CSc1nnc(-c2ccc(F)cc2)c2ccccc12 | active: 12.6 µM | 
28 | COC(=O)C1C(=O)c2c([nH]c(C(=O)OC3CCCCCC3)c2C)CC1C (configuration not stated) |  | 311% [at 10 µM]
29 | Cc1cc(C)c2nc(SC(C)C#N)cc(C)c2c1 (configuration not stated) | active: 0.631 µM | 
30 | O=C(CSCc1ccc(C(=O)O)cc1)Nc1ccc2ccccc2c1 |  | 190% [at 10 µM]
31 | CC(C)=CCC/C(C)=C/COc1ccc2ccc(=O)oc2c1 |  | 31.2%
32 | CC(C)(C)OC(=O)NCCCCC1=CC2=CC(=O)C(C)(O)C(=O)C2=CO1 (configuration not stated) |  | 37.4%
33 | O=C(NCCCc1ccccc1)c1cnc2n(c1=O)CCS2 |  | 263% [at 10 µM]
34 | O=C(Nc1cccc(O)c1)c1cccc(S(=O)(=O)N2CCCC2)c1 | active: 2.82 µM | 
35 | C[C@@H]1CC[C@]2(C(=O)O)CC[C@]3(C)C(=CCC4[C@@]5(C)C[C@@H](O)[C@H](O)[C@@](C)(CO)C5CC[C@]43C)C2[C@H]1C (some centres not stated) |  | -252%
36 | COC(=O)C(C)Sc1nc2c(c(=O)n(C)c(=O)n2C)n1Cc1cccc(C)c1 (configuration not stated) |  | 214% [at 10 µM]
37 | COc1cc2nc(N(C)CCCNC(=O)C3CCCO3)nc(N)c2cc1OC (configuration not stated) |  | -31.1%
38 | COc1cccc(-c2cc(=O)c3cc(NC(=O)c4ccc(N(C)C)cc4)ccc3[nH]2)c1 |  | -290%

One compound at a time, from the list above.
CN1C(=O)C2(c3ccccc31)C1CCCC=C1C(C#N)=C(N)C2(C#N)C#N (configuration not stated) in the list: Potency: active: 20 µM
CCCNC(=O)c1cc(-c2ccco2)on1 in the list: Potency: active: 1.58 µM
Cc1cc(C)c2nc(SC(C)C#N)cc(C)c2c1 (configuration not stated) in the list: Potency: active: 0.631 µM
CCOc1ccc(-c2nc3ccc(-c4nc5ccc(N6CCN(C)CC6)cc5[nH]4)cc3[nH]2)cc1 in the list: cytoprotection (ATP increase): -102%

(listing goes on)

Row | SMILES | Potency | cytoprotection (ATP increase)
39 | Cc1cc2oc(=O)cc(-c3ccccc3)c2c(C)c1-c1cccc(N)c1 |  | -66.3%
40 | O=[N+]([O-])c1cnc2ccccn12 | active: 3.98 µM | 
41 | NCCCCN=C(N)N |  | -33.9%
42 | CC1(C)[C@H](C(=O)O)N2C(=O)C[C@H]2S1(=O)=O |  | -50.6%
43 | COc1cc2c(cc1OC)C1(Nc3c-2c(C)nn3-c2ccccc2)C(=O)Nc2ccccc21 (configuration not stated) | active: 3.55 µM | 
44 | COc1cc(-c2nc3cnccn3c2Nc2ccc3c(c2)OCCO3)ccc1O |  | 270% [at 10 µM]
45 | CC(OC(=O)CCc1nc2ccccc2c(=O)[nH]1)C(=O)c1ccc(Br)cc1 (configuration not stated) |  | 199% [at 10 µM]
46 | COc1cccc(NC(=S)N2CCN(Cc3ccccc3)CC2)c1 |  | 223% [at 10 µM]
47 | Cc1cccc(C(=O)N2CCC(=O)N([C@H](COCc3ccc(Cl)cc3)Cc3ccccc3)CC2)c1 |  | -84.2%
48 | O=C(/C=C/c1ccccc1)NC(NC(=S)Nc1cccc2cccnc12)C(Cl)(Cl)Cl (configuration not stated) |  | -107%
49 | CC(=O)[C@H]1CC[C@H]2C3CC=C4C[C@@H](O)CC[C@]4(C)C3CC[C@]12C (some centres not stated) |  | -40.2%
50 | CC(=O)OCC(=O)C1CCC2C3CC=C4CC(O)CC[C@@]4(C)C3CC[C@]12C (some centres not stated) |  | -36.7%
51 | Cc1ccc(Nc2nc(CSc3nnc(-c4ccncc4)n3-c3ccccc3C)cs2)cc1 |  | 147% [at 10 µM]
52 | COC(=O)N[C@H](C[N+](=O)[O-])c1cccc(C)c1 |  | -43%
53 | Cc1nc2ccccc2n1C(=O)c1ccccc1[N+](=O)[O-] |  | 241% [at 10 µM]
54 | COC(=O)[C@@]1(Cc2ccc(OC)cc2)[C@H]2c3cc(C(=O)N4CCCC4)n(Cc4ccc(Cl)c(C(F)(F)F)c4)c3C[C@H]2CN1C(=O)c1ccccc1 | active: 10 µM | 
55 | COc1ccc(NS(=O)(=O)c2ccc(N/N=C/c3ccc(N4CCOCC4)cc3)c([N+](=O)[O-])c2)cc1 |  | 141% [at 10 µM]
56 | COC(=O)[C@H](Cc1ccccc1)NC(=O)O[C@H]1C(=O)c2cc(OC)ccc2O[C@@H]1c1ccc(OC)c(Br)c1 |  | 24.3%
57 | Fc1ccc2nc(Nc3nc4c(F)cc(F)cc4s3)sc2c1 |  | 230% [at 10 µM]

From PubChem BioAssay AID1471 (National Center for Advancing Translational Sciences (NCATS), 2008)
